Values of other authors, collected in patent publication US11554108B2, “Methods and compositions for treating cutaneous fungal infections” (Xeropedix, Inc., priority 2016, dated 2023).
Some results were stated once for a whole list of compounds, not compound by compound.

Test system: Trichophyton species
Settings: general statement

Row | Compound | MIC against Trichophyton species
1 | CN(Cc1ccc(C(C)(C)C)cc1)Cc1cccc2ccccc12 [butenafine] | less than 0.1 μg/ml
2 | CN(C/C=C/C#CC(C)(C)C)Cc1cccc2ccccc12 [terbinafine] | less than 0.1 μg/ml
